Test system: S5 cells
Test: High throughput screen: ATP level (viable cells) in S5 cells with reduced SMN
Type: cell-based, chicken
Settings: Gallus gallus, percentage increase of ATP level relative to cells treated with DMSO only, 18 ng/ml tet, 0.5 to 20 μM, read-out: Maximum Activity (%)
Method: In the SMN conditional knockout cell line, S5, the endogenous smn gene is disrupted by homologous recombination, and the SMN protein is stably expressed from an SMN cDNA under the control of a tetracycline (tet)-repressible promoter (Wang and Dreyfuss (2001) supra).
Libraries of compounds were screened against the S5 cell line. […] The cells were incubated for an additional 72 hours and the number of viable cells in each well was determined by measuring the ATP level in the cell lysate, a sensitive assay commonly used to assess cell viability in HTS (Crouch, et al. (1993) J. Immunol. Methods 160:81-88). […] Activity of the compounds was measured as the difference between the sample and the average of the controls.
The activities of all compounds were further examined at concentrations ranging from 0.5 to 20 μM. […] The activity of each compound was determined as a percentage increase of the ATP level, reflecting the number of viable cells, relative to cells treated with an equal volume of DMSO only. […]
After being incubated in medium containing 18 ng/ml tet for 24 hours, S5 cells were dispensed into 96-well plates at 120 μl per well. […] Luminescence was read on a Wallac Victor2 multi-channel plate reader (Perkin-Elmer, Boston, Mass.). […] Data from luminescence readings were analyzed with MICROSOFT® Excel.

## Cc1ccccc1C(OCCN(C)C)c1ccccc1 (stereo not shown) [Compound 26]
  Emax: 45%
